Assay results taken from patent publication US12099068B2, “Biomarkers for graft-versus-host disease” (Incyte Corporation, priority 2018, dated 2024).
Values joined by “and” are separate entries in the source; they are usually repeats but may differ in a detail not shown here. Identical values can stand only once.

How the values were obtained:
[1] = test system: plasma proteins; assay: OLINK proximity extension assay of baseline plasma, CR compared to PD/Death, updated classification, Example 5 (Table 11); assay type: in vivo, human; details: itacitinib 200 or 300 mg QD plus corticosteroids, response at day 28
[2] = test system: plasma proteins; assay: Proteins of Table 11 stably expressed in complete responders between days 1 and 28, Example 5 (Table 12); assay type: in vivo, human; details: day 1 vs day 28
Protocol: Due to the limited sample size, steroid-naive (N=10) and steroid-refractory (N=18) patients were combined for further analysis. Broad proteomic analysis of over 1000 proteins was conducted by OLINK Proteomics (Watertown, MA) using a proximity extension assay as described by the manufacturer. Data are presented as normalized protein expression (NPX) in log 2 scale. Statistical differences were evaluated using unpaired and paired t tests, one-way […] (ANOVA), and Pearson Correlation. Significance was conferred when P<0.05.

[3] = test system: MCP-3 (CCL7), Reg3A, TNFRSF6B, SCF, CXCL10, IL-8, ST2, CALCA, TNF-R1, IL-6, CCL19, IL-2Ra, and PON3; details: targeted OLINK proximity extension assay; for Protein expression, mean, CR (N = 10) / Protein expression, median, CR (N = 10): Complete Responder group; for Protein expression, mean, PD/Death (N = 7) / Protein expression, median, PD/Death (N = 7): Progressive Disease/Death group

Substance	Fold Change, Up-Regulated in CR Compared to PD/Death [1]	Fold Change, Down-Regulated in CR Compared to PD/Death [1]	Fold Change (D1 vs D28), proteins Down-Regulated in CR Compared to PD/Death [2]	further results
CCL28	1.4765			Fold Change (D1 vs D28), proteins Up-Regulated in CR Compared to PD/Death [2]: 1.0625
DSC2		−1.8695		
CD207	1.7751			Fold Change (D1 vs D28), proteins Up-Regulated in CR Compared to PD/Death [2]: 1.0177
KIT	1.7369			Fold Change (D1 vs D28), proteins Up-Regulated in CR Compared to PD/Death [2]: −1.0943
IGFBP3	1.9044			Fold Change (D1 vs D28), proteins Up-Regulated in CR Compared to PD/Death [2]: 1.1493
FAM19A5	1.813			Fold Change (D1 vs D28), proteins Up-Regulated in CR Compared to PD/Death [2]: 1.0841
LY75	1.3276			
CDCP1		−2.792	−1.1249	
THPO	2.7391			
LILRB4		−1.832	−1.1845	
SCF	3.5978 and 3.5041 and 3.2594			Protein expression, mean, CR (N = 10) [3]: 639 pg/mL; Protein expression, median, CR (N = 10) [3]: 627.6 pg/mL; Protein expression, mean, PD/Death (N = 7) [3]: 283.7 pg/mL; Protein expression, median, PD/Death (N = 7) [3]: 318.4 pg/mL
CXCL10		−3.5343	−1.6949	Protein expression, mean, CR (N = 10) [3]: 307.2 pg/mL; Protein expression, median, CR (N = 10) [3]: 200.6 pg/mL; Protein expression, mean, PD/Death (N = 7) [3]: 920.4 pg/mL; Protein expression, median, PD/Death (N = 7) [3]: 941.8 pg/mL
CCL11	1.3644 and 1.3163			
AREG		−4.8443		
CCL19		−2.1313	1.0575	Protein expression, mean, CR (N = 10) [3]: 484.9 pg/mL; Protein expression, median, CR (N = 10) [3]: 439.1 pg/mL; Protein expression, mean, PD/Death (N = 7) [3]: 1751 pg/mL; Protein expression, median, PD/Death (N = 7) [3]: 1036 pg/mL
SIGLEC10		−3.8434		
IL8		−5.0031	1.6324	
ACE2		−3.7433	1.301	
HAVCR2		−2.4468		
THBS2		−1.2257		
CES1		−2.9707	1.1821	
TNFRSF10A			1.1052 and 1.0972	
VSIG4		−2.0226		

Substance	Fold Change, Up-Regulated in CR Compared to PD/Death [1]	Fold Change, Down-Regulated in CR Compared to PD/Death [1]	Fold Change (D1 vs D28), proteins Down-Regulated in CR Compared to PD/Death [2]	further results
CALCA		−5.4107	−1.2293	Protein expression, mean, CR (N = 10) [3]: 1826 pg/mL; Protein expression, median, CR (N = 10) [3]: 1456 pg/mL; Protein expression, mean, PD/Death (N = 7) [3]: 5996 pg/mL; Protein expression, median, PD/Death (N = 7) [3]: 3130 pg/mL
COL4A1		−1.663		
CCL5	2.1066			
GCG	3.904			
GDF-8	2.2804			Fold Change (D1 vs D28), proteins Up-Regulated in CR Compared to PD/Death [2]: 1.0733
EPHA2		−1.7981	1.0139	
MBL2	3.7419			Fold Change (D1 vs D28), proteins Up-Regulated in CR Compared to PD/Death [2]: −1.439
Gal-4		−2.0631		
LEP	4.402			Fold Change (D1 vs D28), proteins Up-Regulated in CR Compared to PD/Death [2]: 1.133
CTSL1		−3.7378	−1.0288	
IL-1ra		−1.6115	−1.1696	
NCAN	1.5261			Fold Change (D1 vs D28), proteins Up-Regulated in CR Compared to PD/Death [2]: 1.0838
MCP-3		−7.865	1.1945	
TRAIL-R2		−1.8307	−1.0337	
Notch 3	1.7306			Fold Change (D1 vs D28), proteins Up-Regulated in CR Compared to PD/Death [2]: 1.1259
NCAM1	1.6306			
GH	2.6866			Fold Change (D1 vs D28), proteins Up-Regulated in CR Compared to PD/Death [2]: −1.0614
GAL	3.0034			
SPINK1 (DSLGREAKCYNELNGCTKIYDPVCGTDGNTYPNECVLCFENRKRQTSILIQKSGPC; UniProt P00995 24-79, looked up)		−4.2632	−1.0709	
CRH	1.4003			Fold Change (D1 vs D28), proteins Up-Regulated in CR Compared to PD/Death [2]: −1.0445
PLXNB1		−2.3572	1.1347	
SIGLEC1		−2.0772		
